Laboratory results from article PMC5533464.
Results are given in words; binding and its absence hold for the method and conditions named. In cells and extracts the contact can be indirect. Some entries that bind do so weakly or less than the wild type. Sequences can lack the tags named with a protein.

Target: T1, AtCNGC4, BiFC fusion (Arabidopsis) (UniProt Q94AS9)
T1 sequence: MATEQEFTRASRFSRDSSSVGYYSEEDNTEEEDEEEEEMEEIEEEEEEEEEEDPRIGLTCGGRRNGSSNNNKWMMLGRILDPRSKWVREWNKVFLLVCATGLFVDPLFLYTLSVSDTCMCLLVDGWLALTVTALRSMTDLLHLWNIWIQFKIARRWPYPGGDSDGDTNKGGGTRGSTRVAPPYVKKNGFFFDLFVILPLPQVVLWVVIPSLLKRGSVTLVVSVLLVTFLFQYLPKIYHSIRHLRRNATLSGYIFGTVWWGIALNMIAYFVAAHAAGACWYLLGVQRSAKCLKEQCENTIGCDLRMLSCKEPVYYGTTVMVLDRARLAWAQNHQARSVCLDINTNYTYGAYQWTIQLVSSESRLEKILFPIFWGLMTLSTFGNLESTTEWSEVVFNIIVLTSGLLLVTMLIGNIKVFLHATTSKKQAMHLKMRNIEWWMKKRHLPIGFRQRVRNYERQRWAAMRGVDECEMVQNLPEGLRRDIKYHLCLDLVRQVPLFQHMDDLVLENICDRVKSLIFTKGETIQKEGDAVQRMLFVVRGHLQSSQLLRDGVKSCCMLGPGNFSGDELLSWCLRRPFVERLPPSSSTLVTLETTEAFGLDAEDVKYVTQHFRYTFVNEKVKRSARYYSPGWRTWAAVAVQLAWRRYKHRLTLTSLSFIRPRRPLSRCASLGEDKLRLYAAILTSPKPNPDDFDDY
Assay: split reporter; BiFC with eYFP halves (pSPYNE173, pSPYCE(M)); Agrobacterium EHA105 co-infiltrated into N. benthamiana leaves with the p19 strain and the PM marker PIP2;1-mCherry; confocal microscopy 48-72 h after infiltration

B1: AtCNGC2, BiFC fusion (protein, UniProt O65718 1-726)
chain: MPSHPNFIFRWIGLFSDKFRRQTTGIDENSNLQINGGDSSSSGSDETPVLSSVECYACTQVGVPAFHSTSCDQAHAPEWRASAGSSLVPIQEGSVPNPARTRFRRLKGPFGEVLDPRSKRVQRWNRALLLARGMALAVDPLFFYALSIGRTTGPACLYMDGAFAAVVTVLRTCLDAVHLWHVWLQFRLAYVSRESLVVGCGKLVWDPRAIASHYARSLTGFWFDVIVILPVPQAVFWLVVPKLIREEKVKLIMTILLLIFLFQFLPKIYHCICLMRRMQKVTGYIFGTIWWGFALNLIAYFIASHVAGGCWYVLAIQRVASCIRQQCMRTGNCNLSLACKEEVCYQFVSPTSTVGYPCLSGNLTSVVNKPMCLDSNGPFRYGIYRWALPVISSNSLAVKILYPIFWGLMTLSTFANDLEPTSNWLEVIFSIVMVLSGLLLFTLLIGNIQVFLHAVMAKKRKMQIRCRDMEWWMKRRQLPSRLRQRVRRFERQRWNALGGEDELELIHDLPPGLRRDIKRYLCFDLINKVPLFRGMDDLILDNICDRAKPRVFSKDEKIIREGDPVQRMIFIMRGRVKRIQSLSKGVLATSTLEPGGYLGDELLSWCLRRPFLDRLPPSSATFVCLENIEAFSLGSEDLRYITDHFRYKFANERLKRTARYYSSNWRTWAAVNIQMAWRRRRKRTRGENIGGSMSPVSENSIEGNSERRLLQYAAMFMSIRPHDHLE
binding: binds
